According to the supplement of paper PMC12578635:
This is one part of the list. Rule as the data show it: active = 150% or more and inactive = the rest. Single values are uncertain, as repeats are few or missing.

The compounds below were run on Staphylococcus aureus JE2-lux inside RAW 264.7 macrophages (assay: intracellular bacterial bioluminescence relative to DMSO vehicle; higher = higher intracellular bacterial metabolic activity). Details: 10 µM; treatment time 4 h; gentamicin 50 µg/ml.
Procedure: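 RAW 264.7 macrophages infected with bioluminescent MRSA JE2-lux (MOI 100) were dispensed into 384-well plates with 10 µM compound in the presence of 50 µg/ml gentamicin. After 4 h at 37 °C, bacterial bioluminescence (a proxy for intracellular bacterial metabolic activity) and host cell viability (CellTiter-Fluor) were read and normalised to 0.1% DMSO vehicle controls. Single-pass screen of the UNC CICBDD kinase-targeted library (>4,700 compounds).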
With `Cc1nc2sc(C(c3ccco3)N3CC(C)CC(C)C3)c(O)n2n1` (stereo not given) the intracellular bacterial bioluminescence was inactive: 97.3%. With `CC1CCCN(S(=O)(=O)c2ccc(C(=O)/C(C#N)=C3\Nc4ccccc4N3C)cc2)C1` (stereo not given) the intracellular bacterial bioluminescence was inactive: 105%. In the case of `Cc1ccc(Cl)cc1NC(=O)NCCCn1c(C(F)(F)F)nc2cccnc21`, the intracellular bacterial bioluminescence is reported as inactive: 79%. For `Cc1nnc(NC(=O)CSc2nnc(CNC(=O)c3ccco3)o2)s1`, the intracellular bacterial bioluminescence was inactive: 103%. For `CCCN1CCN(C(=O)Cn2c(C)nc3onc(C)c3c2=O)CC1`, the intracellular bacterial bioluminescence was inactive: 108%. With `Cc1sc2nc(C)n(C3CCN(C(=O)Cc4ccsc4)CC3)c(=O)c2c1C` the intracellular bacterial bioluminescence was inactive: 98.6%. `CCOc1ccc(Nc2c(CC)c(C)c(C#N)c3nc4ccccc4n23)cc1` was tested, and the intracellular bacterial bioluminescence was inactive: 101%. With `NC(=O)CSc1cn(Cc2ccc(Cl)cc2)c2ccccc12` the intracellular bacterial bioluminescence was inactive: 56.6%. With `c1cncc(CSc2ncnc3c2sc2nc4ccccc4cc23)c1` the intracellular bacterial bioluminescence was inactive: 117%. `CCN1CCCC1CNCc1cc2c(C)cc(C)cc2n2c(=O)n(C)nc12` (stereo not given) was tested, and the intracellular bacterial bioluminescence was inactive: 89.6%. In the case of `O=C(Nc1nc2ccc3ccccc3c2s1)c1cccc(N2C(=O)CCC2=O)c1`, the intracellular bacterial bioluminescence is reported as inactive: 88.6%. For `COc1cccc(/N=C2\NC(=O)/C(=C3/C(=O)Nc4ccccc43)S2)c1`, the intracellular bacterial bioluminescence was inactive: 85.2%. `Cn1cnc2cc(-c3noc(CNC(=O)C(c4ccccc4)c4ccccc4)n3)ccc21` was tested, and the intracellular bacterial bioluminescence was inactive: 97.8%. For `Cc1cc(NC(=O)CSc2c(C)[nH]c3ccccc23)no1`, the intracellular bacterial bioluminescence was inactive: 98.5%. With `O=C1CC(Nc2ccc(N3CCOCC3)cc2)C(=O)N1c1ccc(Cl)c(C(F)(F)F)c1` (stereo not given) the intracellular bacterial bioluminescence was inactive: 110%. With `CCN(CC)CCNC(=O)c1cc2cc([NH+]([O-])O)ccc2oc1=O` (stereo not given) the intracellular bacterial bioluminescence was inactive: 108%. For `O=C(CC(=O)N/N=C1\C(=O)Nc2ccccc21)N/N=C1\C(=O)Nc2ccccc21`, the intracellular bacterial bioluminescence was inactive: 79%. With `COc1cccc(C(=O)COC(=O)c2cc3cc(Br)cc(OC)c3oc2=O)c1` the intracellular bacterial bioluminescence was inactive: 120%. `Cc1cc(SCC(=O)Nc2ccccc2)n2c(nc3ccccc32)c1C#N` was tested, and the intracellular bacterial bioluminescence was inactive: 92.5%. `Cc1ccc2cc(CN(Cc3ccccc3)C(=O)c3cccnc3)c(Cl)nc2c1` was tested, and the intracellular bacterial bioluminescence was inactive: 78.9%. In the case of `C=CCn1/c(=N/C(=O)c2nc3ccccc3s2)sc2cc(NC(C)=O)ccc21`, the intracellular bacterial bioluminescence is reported as inactive: 115%. With `COc1ccc(N2CCN(c3cc(C)nc4nncn34)CC2)cc1` the intracellular bacterial bioluminescence was inactive: 127%. In the case of `COC(=O)c1cccc(NC(=O)N2CCC(c3nnc(C(=O)Nc4ccccc4F)s3)CC2)c1`, the intracellular bacterial bioluminescence is reported as inactive: 58.5%. With `CCOC(=O)c1cc(C)nc2c1c(=O)n(Cc1cccc(C(F)(F)F)c1)c(=O)n2C` the intracellular bacterial bioluminescence was inactive: 105%. With `CCOc1ccc(CCNC(=O)COc2ncnc3oc(C)c(C)c23)cc1OCC` the intracellular bacterial bioluminescence was inactive: 50.1%. For `Cc1ccc(/C=C(/C#N)C(=O)Nc2sc3c(c2C(N)=O)CCCC3)o1`, the intracellular bacterial bioluminescence was inactive: 85.7%. In the case of `CCn1c(SCC(=O)Nc2cc(C)on2)nc2c(c1=O)SC(C)C2` (stereo not given), the intracellular bacterial bioluminescence is reported as inactive: 73.3%. In the case of `CCc1ccc(N2C(=O)SC(Nc3ccc(S(N)(=O)=O)cc3)C2=O)cc1` (stereo not given), the intracellular bacterial bioluminescence is reported as inactive: 105%. For `CCOC(=O)c1sc2nc(NC(=O)c3ccccc3OC)sc2c1C`, the intracellular bacterial bioluminescence was inactive: 67.4%. In the case of `CCOC(=O)c1cnc(SCC(=O)c2ccc(F)cc2)nc1N`, the intracellular bacterial bioluminescence is reported as inactive: 104%. In the case of `Cc1occc1-c1nnc(SCC(=O)NCCc2nc3ccccc3[nH]2)o1`, the intracellular bacterial bioluminescence is reported as inactive: 115%. For `COc1ccc(C(=O)CSc2nc3[nH]ncc3c(=O)[nH]2)cc1`, the intracellular bacterial bioluminescence was active: 151%. In the case of `CC(CNc1nccn(-c2ccc3c(c2)OCO3)c1=O)c1ccccc1` (stereo not given), the intracellular bacterial bioluminescence is reported as inactive: 66%. `COc1cc(NS(=O)(=O)c2ccc(NC(=O)c3ccc(Cl)cc3Cl)cc2)ncn1` was tested, and the intracellular bacterial bioluminescence was inactive: 96.6%. With `COc1ccc(-n2cnc3c(C)nc(-n4nc(C)cc4C)nc32)cc1` the intracellular bacterial bioluminescence was inactive: 42%. `COc1ccccc1OCC(=O)Nn1cnc2c(cnn2-c2ccc(C)cc2)c1=O` was tested, and the intracellular bacterial bioluminescence was inactive: 112%. For `COCCCN1CCn2c(nc3cc(NC(=O)c4ccccc4OC)ccc32)C1`, the intracellular bacterial bioluminescence was inactive: 117%. In the case of `COc1cccc(C(=O)OCn2nnc3ccccc3c2=O)c1OC`, the intracellular bacterial bioluminescence is reported as inactive: 84.6%. `O=C(O)CC1SC(Nc2ccc(O)cc2)=NC1=O` (stereo not given) was tested, and the intracellular bacterial bioluminescence was inactive: 100%. For `CSc1nnc(C)c(=O)n1COC(=O)/C=C/c1ccc2c(c1)OCO2`, the intracellular bacterial bioluminescence was inactive: 76.1%. `Cc1cc(OC(=O)c2ccc(S(=O)(=O)N3CCOCC3)cc2)c([N+](=O)[O-])c(=O)[nH]1` was tested, and the intracellular bacterial bioluminescence was inactive: 111%. `CCCc1cc(C(=O)N2CCCC2c2cccs2)no1` (stereo not given) was tested, and the intracellular bacterial bioluminescence was inactive: 114%. In the case of `COc1ccc(Cl)cc1NC(=O)C(C)n1nc(-c2cc(C)oc2C)cc(N)c1=O` (stereo not given), the intracellular bacterial bioluminescence is reported as inactive: 78.1%. With `CCc1nnc(NC(=O)CSc2ncnc3c2cnn3-c2ccc(Cl)cc2)s1` the intracellular bacterial bioluminescence was inactive: 112%. `Cc1ccc(NC(=O)Cn2nnc(-c3c[nH]c4ccccc34)n2)c(C)c1` was tested, and the intracellular bacterial bioluminescence was inactive: 104%. In the case of `O=C(Nc1ccc(Br)cc1)C1CCN(C(=O)NCc2ccccc2)CC1`, the intracellular bacterial bioluminescence is reported as inactive: 49%. With `Cc1ccc(C)c(N(C(=O)c2csnn2)C(C(=O)NC2CCCCC2)c2ccccn2)c1` (stereo not given) the intracellular bacterial bioluminescence was inactive: 71.3%. `COC(=O)c1ccc(CSc2nc3c(c(=O)n2-c2ccccc2)SCC3)o1` was tested, and the intracellular bacterial bioluminescence was inactive: 38.3%. With `Cn1c(=O)c2c(nc(Br)n2CC(=O)c2ccccc2)n(C)c1=O` the intracellular bacterial bioluminescence was inactive: 96%. For `O=c1[nH]c2ccccc2n1CCCOc1ccc(Cl)cc1`, the intracellular bacterial bioluminescence was inactive: 67.8%. `CN1CCOc2ccc(NC(=O)CN3C(=O)c4ccccc4C3=O)cc2C1=O` was tested, and the intracellular bacterial bioluminescence was inactive: 75.7%. For `CC1=NN(c2ccccc2)C(=N)/C1=N\Nc1cccnc1`, the intracellular bacterial bioluminescence was inactive: 80.9%. `Cc1cc2ccccc2n2c(=O)n(CCNC(=O)C3CC(=O)N(C)C3)nc12` (stereo not given) was tested, and the intracellular bacterial bioluminescence was inactive: 103%. `O=C(Nc1ccc(Cl)cc1)c1ccc(-c2nc3ccccc3s2)s1` was tested, and the intracellular bacterial bioluminescence was inactive: 128%. For `COc1ccc(-c2nnc3n2N=C(c2cccc([N+](=O)[O-])c2)CS3)cc1`, the intracellular bacterial bioluminescence was inactive: 103%. In the case of `Cc1cc(Cl)ccc1Nc1nc(N)c(C(=O)c2c[nH]c3ccccc23)s1`, the intracellular bacterial bioluminescence is reported as inactive: 49.7%. `Cc1ccc(CNC(=O)c2ccc(Cn3c(=O)[nH]c4ccsc4c3=O)cc2)cc1` was tested, and the intracellular bacterial bioluminescence was inactive: 88%. `Cc1cc(NC(=O)CN2CC3CC(C2)c2cccc(=O)n2C3)nc2c1c(=O)oc1ccccc12` (stereo not given) was tested, and the intracellular bacterial bioluminescence was inactive: 96.7%. In the case of `COc1ccc(C2CC(=O)c3cnc(NC4OC(=O)c5ccccc54)nc3C2)cc1OC` (stereo not given), the intracellular bacterial bioluminescence is reported as inactive: 134%. `CCOC(=O)c1c(NC(=S)Nc2c(C)n(C)n(-c3ccccc3)c2=O)sc2c1CCCC2` was tested, and the intracellular bacterial bioluminescence was inactive: 86%. `O=C(Nc1cccc(F)c1)c1cccc(-c2ccc(N3CCCCC3)nn2)c1` was tested, and the intracellular bacterial bioluminescence was inactive: 103%. In the case of `O=C(c1ccc(S(=O)(=O)N2CCCCC2)cc1)N1CCN=C1SCc1ccc([N+](=O)[O-])cc1`, the intracellular bacterial bioluminescence is reported as inactive: 41.2%. In the case of `COc1ccc(NC(=O)Cn2cc(C(=O)c3ccc(F)cc3)c(=O)c3ccccc32)c(OC)c1`, the intracellular bacterial bioluminescence is reported as inactive: 87.4%. `COc1cccc2sc(Nc3nc4c(F)cc(F)cc4s3)nc12` was tested, and the intracellular bacterial bioluminescence was inactive: 76%. `C=CCNC(=O)c1sc2nc3c(C)cccc3cc2c1N` was tested, and the intracellular bacterial bioluminescence was inactive: 78.6%. `Cc1cccc(NC(=O)c2sc3nc(-c4ccc(F)cc4)cn3c2C)c1C` was tested, and the intracellular bacterial bioluminescence was inactive: 100%. With `Cc1nnc2ccc(-n3ncc4c3NC(=O)CC4c3ccc(OCc4ccc(F)cc4)cc3)nn12` (stereo not given) the intracellular bacterial bioluminescence was inactive: 94.5%. For `Cc1ccc(NC(=O)CN2C(=O)/C(=C\c3cccs3)SC2=S)cc1C`, the intracellular bacterial bioluminescence was inactive: 122%. With `CC12CC(NC(=O)N1c1cccc(F)c1)c1cc([N+](=O)[O-])ccc1O2` (stereo not given) the intracellular bacterial bioluminescence was inactive: 16.6%. With `COc1ccc(OC)c(NC(=O)CSc2nc3ccccc3c(=O)n2C)c1` the intracellular bacterial bioluminescence was inactive: 62.8%. In the case of `Cc1nn(-c2ccc3nncn3n2)c(C)c1Sc1nnc(N)s1`, the intracellular bacterial bioluminescence is reported as inactive: 93.1%. `O=C(CSc1nc(=O)n2ccccc2n1)N1CCc2ccccc21` was tested, and the intracellular bacterial bioluminescence was inactive: 58.3%. With `Cc1[nH]c2nc(CNc3ccccc3F)nn2c(=O)c1Cc1ccccc1` the intracellular bacterial bioluminescence was inactive: 86.3%. With `CCN(C(=O)c1cccs1)c1nc2c(s1)CCc1occc1-2` the intracellular bacterial bioluminescence was inactive: 89.4%. For `O=C(O)CCCCCN1C(=O)/C(=C/c2c(NCc3ccco3)nc3ccccn3c2=O)SC1=S`, the intracellular bacterial bioluminescence was inactive: 78.2%. `O=C(NCCCN1CCCC1=O)c1ncoc1-c1ccc(F)cc1` was tested, and the intracellular bacterial bioluminescence was inactive: 75.9%. For `O=C(NCC1COC2(CCCCC2)O1)Nc1ccc(Cl)cc1` (stereo not given), the intracellular bacterial bioluminescence was inactive: 104%. `CCOc1ccc(-c2cc(C(=O)Nc3cc(C)on3)no2)cc1` was tested, and the intracellular bacterial bioluminescence was inactive: 99.3%. With `CC(=O)Nc1ccc(Nc2nc3c(S(=O)(=O)c4cc(C)ccc4C)nnn3c3ccsc23)cc1` the intracellular bacterial bioluminescence was inactive: 94.6%. In the case of `COc1cc(C(=O)Oc2coc(CSc3nc(C)cc(C)n3)cc2=O)c([N+](=O)[O-])cc1OC`, the intracellular bacterial bioluminescence is reported as inactive: 115%. With `Cc1cccc(OCCCN2C(=O)C(=O)c3cc(Br)cc(C)c32)c1` the intracellular bacterial bioluminescence was inactive: 107%. In the case of `O=C1NC(=O)c2cc(S(=O)(=O)N(CCO)CCO)cc3cccc1c23`, the intracellular bacterial bioluminescence is reported as inactive: 103%. For `CC(C)N1CCn2c(nc3cc(NS(C)(=O)=O)ccc32)C1`, the intracellular bacterial bioluminescence was inactive: 103%. `COc1cc(/C=N/n2cnnc2)ccc1OC(=O)c1ccncc1` was tested, and the intracellular bacterial bioluminescence was inactive: 135%. With `CC(=O)c1cccc(NC(=O)CSc2nc(=O)n(N3CCN(C)CC3)c3c2CCCC3)c1` the intracellular bacterial bioluminescence was inactive: 85.8%. With `N#Cc1c(NC(=O)c2nc3ccccc3s2)sc2c1CCN(Cc1ccccc1)C2` the intracellular bacterial bioluminescence was inactive: 91%. For `CC(=O)c1[nH]c(C)c(C(=O)NCCn2nc3c(C)cc4ccc(C)cc4n3c2=O)c1C`, the intracellular bacterial bioluminescence was inactive: 144%. For `O=C(CSc1nnc2[nH]c(=O)ccn12)Nc1ccc(Br)cc1`, the intracellular bacterial bioluminescence was inactive: 107%. `O=C(CSc1ncnc2c1oc1ccccc12)Nc1ccc([N+](=O)[O-])cc1` was tested, and the intracellular bacterial bioluminescence was inactive: 108%. `O=C(COC(=O)c1cc(O)nc2ccccc12)c1ccc(Cl)cc1` was tested, and the intracellular bacterial bioluminescence was inactive: 102%.
